The list shows a part of the results. The main result of the screen is listed elsewhere. These columns were measured beside it and carry no call. The list favours compounds with an active or inconclusive main result. Potencies come from curve fits of mixed quality, noted in brackets.
Test: qHTS Assay for Lipid Storage Modulators in Drosophila S3 Cells;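 on cell number change: cells counted by Cell Tracker Red CMTPX staining in the red channel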
Settings: BODIPY lipid droplet fluorescence, 18-24 h; for cell number change: measured here: cell count max response, cells fed with added oleic acid
Summary of the method: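 Drosophila S3 cells got compounds at several concentrations plus oleic acid (400 uM solution). Laser-scanning cytometry with 488 nm excitation read lipid droplets at 500-530 nm and cells at 575-640 nm. Percent activity was relative to 20 uM Triacsin C.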

[1] = measured here: cell number channel AC50, cells fed with added oleic acid
[2] = measured here: lipid fluorescence (Fed channel) AC50, cells fed with added oleic acid

| Structure (SMILES) | cell number change | AC50 [1] | AC50 [2] |
| --- | --- | --- | --- |
| O=C(Cn1c2ccc(F)cc2c2nc3n(c(=O)c21)CCS3)Nc1ccccc1F | -43.6% | 29.1 µM [falling, single point] | 5.8 µM [falling, full curve] |
| CC(=O)Cn1nnc2sc3c(c2c1=O)CCC(C(C)(C)C)C3 (centres undefined) | 16.9% | – | – |
| Cc1ccc(NC(=O)CN(C)C(=O)COC(=O)c2nc3nccc(C)n3n2)cc1 | 7.02% | – | 29.1 µM [rising, single point] |
| CCOC(=O)CSc1nc2c(c(=O)n(C)c(=O)n2C)n1Cc1ccccc1F | -3.64% | – | – |
| CCC(CC)C(=O)NCc1ccccc1OC | 2.86% | – | 0.58 µM [rising, single point] |
| Cc1ccc(C)c(OCCCN2CCCC2)c1 | -46.1% | 0.411 µM [falling, full curve] | 0.651 µM [falling, full curve] |
| CCC(CC)C1=NN2C(=N)/C(=C\c3cc(C)n(-c4cccc(C)c4)c3C)C(=O)N=C2S1 | -5.56% | 6.51 µM [rising, single point] | 6.51 µM [rising, single point] |
| c1cc2c3c(cccc3c1)C(N1CCCCCC1)=N2 | 0.481% | – | 6.51 µM [falling, single point] |
| CCN(Cc1ccccc1)C(=O)CSc1ccccc1C(=O)O | 18.4% | 0.259 µM [rising, full curve, poor fit] | – |
| CCc1ccc(OCC(=O)NC(=S)Nc2ccc(C(=O)O)cc2)cc1 | -11.8% | – | 29.1 µM [falling, single point] |
| COc1cc(S(=O)(=O)N2CCOCC2)ccc1NC(=O)CSc1n[nH]c(=O)[nH]c1=O | -13% | 2.06 µM [falling, partial curve] | 2.59 µM [falling, full curve] |
| Cc1nc2ccc(C(=O)N/N=C/c3ccccc3O)cc2[nH]1 | 55.6% | 1.64 µM [rising, full curve] | 2.06 µM [rising, partial curve] |
| CCOc1ccc(S(=O)(=O)N(C)c2ccc(OCC(=O)N3CCOCC3)cc2)cc1 | 83.1% | 29.1 µM [rising, single point] | – |
| O=C(Nc1cc(C(F)(F)F)ccc1N1CCOCC1)c1cccnc1 | – | 0.164 µM [rising, full curve] | 0.184 µM [rising, full curve] |
| C=CCNC(=O)C(C)N1c2cccc3cccc(c23)S1(=O)=O (centres undefined) | -10.8% | – | – |
| CN1C(=O)/C(=C/c2ccc(OCc3cccc(F)c3)cc2)NC1=S | 22.5% | – | – |
| COc1ccc(-c2ccc(-c3noc(-c4ccccc4)n3)c(OC)n2)cc1 | 134% | 8.2 µM [rising, partial curve] | 1.84 µM [rising, partial curve] |
| COc1cc(O)sc1C=Nc1ccc(Cl)cc1 | 24.4% | – | 5.8 µM [rising, full curve, poor fit] |
| Cc1ccc(/C=N/NC(=O)Cn2cnc3ccccc32)o1 | 17.2% | – | 29.1 µM [rising, single point] |
| CN(C)S(=O)(=O)c1cc(NC(=O)c2cc(=O)[nH]c3ccccc23)ccc1Cl | 95.8% | 6.51 µM [rising, full curve] | – |

In the list so far, these contain a Cl atom.

| Structure (SMILES) | cell number change | AC50 [1] | AC50 [2] |
| --- | --- | --- | --- |
| COc1cc(O)sc1C=Nc1ccc(Cl)cc1 | 24.4% | – | 5.8 µM [rising, full curve, poor fit] |
| CN(C)S(=O)(=O)c1cc(NC(=O)c2cc(=O)[nH]c3ccccc23)ccc1Cl | 95.8% | 6.51 µM [rising, full curve] | – |

Going on with the list.

| Structure (SMILES) | cell number change | AC50 [1] | AC50 [2] |
| --- | --- | --- | --- |
| CCN(CC)CCN(C(=O)c1ccc(C(=O)c2ccccc2)cc1)c1nc2cc3c(cc2s1)OCO3 | – | – | 35.5 µM [rising, single point] |
| CN(C)c1ccc(C(=O)/C=C/c2ccc(Br)cc2)cc1 | -1.72% | – | 2.91 µM [falling, partial curve] |
| CC(C)OP(=O)(OC(C)C)C(O)c1ccc2c(c1)OCO2 (centres undefined) | 3.18% | – | – |
| CC(C)(C)C(=O)NC(=S)NNC(=O)c1sc2ccccc2c1Cl | -65.5% | 7.31 µM [falling, partial curve] | 5.8 µM [falling, full curve] |
| Cc1cc(C)cc(SCc2noc(C(=O)NC(C)C)c2C(=O)NC(C)C)c1 | 27.5% | – | 18.4 µM [rising, single point] |
| Cc1ccc2c(c1)N(C(=O)CCC(=O)NCCCN1CCN(C)CC1)CCO2 | 17.6% | – | 6.51 µM [rising, single point] |
| O=C(O)c1nn(CC(=O)N2CCN(c3ccccc3)CC2)c(=O)c2ccccc12 | 23.9% | – | 29.1 µM [rising, single point] |
| Fc1ccc(-[n+]2nc(Nc3ccccc3)sc2-c2c(Cl)cccc2Cl)cc1 | -29.6% | – | 29.1 µM [falling, partial curve, poor fit] |
| NC(=O)[C@@H]1CCCN1Cc1c(C(=O)N2CCN(C3CCCCC3)CC2)nc2ccccn12 | 13.6% | – | 6.51 µM [rising, single point] |
| COc1ccc(-c2cc(=O)oc3c(C)c(OC(C)C(C)=O)ccc23)cc1 (centres undefined) | 25.7% | – | – |
| Cc1ccc(C)c(C(=O)Cn2ncc(Cl)c(Cl)c2=O)c1 | -0.719% | – | 3.26 µM [rising, partial curve] |
| CNc1oc(-c2ccc(C)cc2)nc1P(=O)(c1ccccc1)c1ccccc1 | -33.6% | 23.1 µM [falling, single point] | – |
| CCCCCCn1c(=O)c(-c2nc3ccccc3c(=O)[nH]2)c(O)c2ccccc21 | 1.08% | – | 20.6 µM [rising, single point] |
| Cc1ccc(CNC(=O)Cc2ccc(NC3=NC4CS(=O)(=O)CC4S3)cc2)cc1 (centres undefined) | 8.36% | – | 6.51 µM [rising, single point] |
| CC(=Nc1ccc(C)cc1)c1sc2ccccc2c1O | – | 3.66 µM [rising, single point] | – |
| COC(=O)c1ccc(NC(=O)CSc2nnc(COc3ccc4c(c3)CCCC4)o2)cc1 | – | 0.00411 µM [falling, full curve, poor fit] | – |
| CCN(CC)c1ccc(/C=C2\CCC(/C=C(\C#N)C(=O)Nc3ccccc3F)=C2N2CCOCC2)cc1 | – | – | 0.411 µM [falling, full curve] |
| Cc1ccc(C(=O)CC(=O)COc2ccc(Cl)cc2)cc1 | -29.4% | – | 29.1 µM [falling, single point] |
| CCOC(=O)N1CCC2(O)CCCCC2C1c1ccc(F)cc1 (centres undefined) | 10.1% | – | – |

— PubChem BioAssay AID2685 (National Center for Advancing Translational Sciences (NCATS), 2010)
